{
  "source": "patent US11197885B2",
  "about": "“Collagen enhancing agent made from low acyl gellan gum, methods of making and methods of using the same” (The University of Toledo, priority 2015, dated 2021)",
  "test_system": "pCREB in mouse cortical neurons",
  "test": "nuclear pCREB in midi-GAGR-treated mouse cortical neurons pre-treated with signaling inhibitors",
  "type": "cell-based",
  "conditions": "inhibitor 6 h (SU5402 4 μM, staurosporine 3 nM, U0126 10 μM, LY294002 20 μM, KN-62 10 μM, PF-573228 1 μM), then 1 μM midi-GAGR 48 h",
  "protocol": "To analyze the effect of polysaccharides on neurite outgrowth, primary mouse cortical neurons were treated with vehicle (H2O) or 1 μM of dextran, alginate, or midi-GAGR, 0.01 μM of HA-GAGR, or 0.1 μM of LA-GAGR for 2 days prior to immunocytochemistry using anti-α-tubulin antibody and secondary Alexa488nm antibody. An etched grid coverslip containing 200 numbered boxes was used to select neurons objectively for image acquisition and analysis. A total of 24 boxes were randomly selected per treatment group. All the neurons having total neurite length longer than 4 times of the diameter of neuron cell body were chosen for image analysis. The total length of the neurites of each neuron was measured using Metamorph and used to calculate average total neurite length. […] The intensity of the staining of nuclear pCREB was measured using Metamorph and used to calculate average intensity. In addition, the phosphorylation of CREB in the cytosols of mouse cortical neurons treated with polysaccharides were detected by immunoblotting. […] The protein bands on blots recognized by anti-pCREB (Santa Cruz Biotechnologies) and anti-CREB antibodies were detected on Amersham Hyperfilm™ ECL films (GE Healthcare Life Science) using SuperSignal® West Pico Chemiluminescent Substrate (Thermo Scientific). […]",
  "data": [
    {"molecule": "CN[C@@H]1C[C@H]2O[C@@](C)([C@@H]1OC)n1c3ccccc3c3c4c(c5c6ccccc6n2c5c31)C(=O)NC4", "note": "[staurosporine]", "values": [
      {"measurement": "effect of inhibitor pre-treatment on average intensity of pCREB in midi-GAGR-treated neurons", "result": "significantly decreased"}
    ]}
  ]
}
